This experiment concerns the target MTA1-Δ26 (MTA1 162–354 with the whole of ELM2 helix 2 deleted) (UniProt Q13330). In words: co-IP; HEK293F cells co-transfected with His10-Flag3-MTA1 construct, HDAC1 and MBD2; clarified lysate on FLAG resin 30 min, washes in 50 mM Tris-HCl pH 7.5, 100 mM potassium acetate, 5% glycerol, RNase A, elution with TEV protease; SDS-PAGE; DNA ratios 1:1:1 and 1:1:4.

Amino acid sequences for entries named in this document (tags omitted). A change or cut given only in a name is not applied to a line headed by its entry. Residues count along the entry.
UniProt Q13330: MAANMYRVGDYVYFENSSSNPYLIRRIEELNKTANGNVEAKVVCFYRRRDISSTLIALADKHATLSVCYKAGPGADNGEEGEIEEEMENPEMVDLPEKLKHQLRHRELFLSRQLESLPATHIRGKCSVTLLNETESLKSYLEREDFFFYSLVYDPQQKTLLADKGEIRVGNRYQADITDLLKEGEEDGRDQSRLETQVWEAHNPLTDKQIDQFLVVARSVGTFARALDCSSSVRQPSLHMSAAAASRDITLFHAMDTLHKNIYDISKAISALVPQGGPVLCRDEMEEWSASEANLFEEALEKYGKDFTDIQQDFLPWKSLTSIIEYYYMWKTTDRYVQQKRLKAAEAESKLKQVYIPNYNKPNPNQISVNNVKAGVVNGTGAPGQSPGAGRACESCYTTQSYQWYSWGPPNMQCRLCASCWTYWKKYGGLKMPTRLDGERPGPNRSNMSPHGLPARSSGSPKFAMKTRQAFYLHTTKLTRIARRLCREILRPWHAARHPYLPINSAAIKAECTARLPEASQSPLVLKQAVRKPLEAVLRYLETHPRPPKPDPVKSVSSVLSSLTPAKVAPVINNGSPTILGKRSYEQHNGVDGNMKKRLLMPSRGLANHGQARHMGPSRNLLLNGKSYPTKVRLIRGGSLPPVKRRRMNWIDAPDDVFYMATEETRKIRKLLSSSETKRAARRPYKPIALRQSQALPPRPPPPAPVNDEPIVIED
UniProt Q9UBB5, residues 145-411: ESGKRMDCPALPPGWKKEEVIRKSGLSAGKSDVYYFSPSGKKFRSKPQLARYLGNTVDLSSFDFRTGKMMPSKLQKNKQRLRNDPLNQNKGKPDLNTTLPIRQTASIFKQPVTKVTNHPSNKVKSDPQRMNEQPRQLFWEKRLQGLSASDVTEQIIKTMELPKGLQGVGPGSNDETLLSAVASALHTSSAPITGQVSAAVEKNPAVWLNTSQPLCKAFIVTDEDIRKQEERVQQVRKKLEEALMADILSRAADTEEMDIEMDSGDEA
UniProt Q13547: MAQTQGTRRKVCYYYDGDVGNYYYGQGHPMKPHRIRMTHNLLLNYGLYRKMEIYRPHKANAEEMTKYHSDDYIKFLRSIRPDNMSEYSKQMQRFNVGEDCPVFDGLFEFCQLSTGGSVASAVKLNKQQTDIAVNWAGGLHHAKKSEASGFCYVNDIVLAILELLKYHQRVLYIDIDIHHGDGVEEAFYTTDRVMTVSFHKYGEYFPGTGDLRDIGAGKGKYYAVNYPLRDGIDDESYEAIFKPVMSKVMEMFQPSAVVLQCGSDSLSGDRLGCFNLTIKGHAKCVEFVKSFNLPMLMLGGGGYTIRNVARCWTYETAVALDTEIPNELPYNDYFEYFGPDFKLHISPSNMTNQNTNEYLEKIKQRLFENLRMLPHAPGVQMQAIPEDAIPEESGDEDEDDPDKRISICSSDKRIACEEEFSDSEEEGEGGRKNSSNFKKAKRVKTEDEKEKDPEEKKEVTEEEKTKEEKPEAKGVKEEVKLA

These are yes or no findings as the source states them, for the method shown. In cells and extracts the contact can be indirect. Binding can be weak; no strength is given.

With “MBD2 (residues 145–411) (from UniProt Q9UBB5 145-411) (domain or fragment)”, the binding result is “no binding”.

Turning to “HDAC1 (residues 1–482) (from UniProt Q13547 1-482) (enzyme)”, the binding entry was “binds”.

The record behind these values is paper PMC7736783 (Nucleic Acids Research, 2020).
